Each number is a percent effect as filed. How 0% and 100% were set is not recorded. Most values in the screen are low, and negative values occur. This is an unselected part of the compounds tested.

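Assay of Toxoplasma gondii numbers, read through their beta-galactosidase reporter with a colour substrate. Concentration: 50 µM. Higher reads as fewer parasites (inferred from which compounds were picked for retests). Size under these conditions: about 18,000 compounds, about 170 of them at 50% or above in at least one test.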

COc1cn(-c2ccccc2)nc1C(=O)NCC(C)C gave -4.127%. For Cn1cnc(S(=O)(=O)N(CC(N)=O)C2CCCC2)c1Cl the result was -7.294%. With COc1ccc(CCCC(=O)N[C@@H]2CC[C@@H](N)C2)cc1 the screen gave 10.72%. CC1CN(CCO)CCN1 (stereo not shown) read -5.464%. Result for CN(C(=O)CN)C1CCCCC1 was -6.495%. With Cn1cc(C(=O)NCC2CCCS2)ccc1=O (stereo not shown) the screen gave 9.677%. COCCN1CCNCC1=O read -2.752%. With CCn1cncc1CN1CCCC(NC(C)=O)C1 (stereo not shown) the screen gave 1.481%.

Result for Cc1cnn(C(=O)c2cc(C(F)(F)F)n(C)n2)c1 was 41.99%. Result for Cc1nnc(CCNC(=O)C(O)CC(C)C)s1 (stereo not shown) was 1.401%. With c1ccc2c(c1)CCOC21CCNCC1 the screen gave -7.466%. Result for Cn1c(N)nc2cc(F)ccc21 was -25.29%. With O[C@H]1C[C@@H](c2cc(NCc3nc[nH]n3)ncn2)C1 the screen gave -20.17%. COc1ccccc1OCCN1CCC(O)CC1 read -17.36%. Result for C[C@@]1(N)C[C@H]1c1ccccc1 was -1.191%. CNC(=O)Nc1ccc(N2CCOCC2)nc1 read 22.26%.

O=C(Nc1cc[nH]n1)c1csc(I)c1 gave -12.12%. O=C(NC1C=CS(=O)(=O)C1)c1cnc2ccccc2c1 (stereo not shown) read 1.131%. Result for Cn1cc(S(N)(=O)=O)c(C(F)(F)F)n1 was 17.97%. For CCO[C@H]1CN(C)C[C@@H]1NC(=O)c1ccc[nH]1 the result was 5.677%. O=C(C1CCC1)N1CCc2ccc(O)cc2C1 gave 24.36%. CCC(CC)C(CN)N(C)C (stereo not shown) gave -2.652%. CN(C)c1ccnc(NC(=O)C(C)(C)C)c1 gave -2.745%. Result for O=C(NCc1ccccn1)C1(c2ccc(F)cc2)CC1 was 0.8603%.

For CC(C)N1CC(C(=O)N2CCC(C)(C)C2)CC1=O (stereo not shown) the result was 8.826%. For c1ccc(OCCCNCc2cccnc2)nc1 the result was 3.921%. CC(=O)c1ccc(NC(=O)CCc2cccs2)nc1 gave -8.959%. For OC[C@@H]1CNCC[C@@H]1c1ccccc1 the result was -9.236%. Cc1ccc(C(=O)NCCNc2ccncc2)c(=O)[nH]1 read -23.1%. With O=C(CN1CCCC1C(=O)N1CCOCC1)NC1CC1 (stereo not shown) the screen gave 0.6061%. Result for COCCN(CCOC)C(=O)c1cc(F)cc(F)c1 was -0.7829%. With N[C@@H]1C[C@H]1C(F)(F)F the screen gave -2.982%.

With Cc1nc(CNC(=O)N(C)Cc2ccncc2)cs1 the screen gave -10.17%. Result for O=C(NC1CCNC1)C1CCC1 (stereo not shown) was 7.426%. With Cc1ccc(C(=O)N2CCCC2(C)C)c(C)n1 the screen gave 8.198%. With Cc1ncsc1C(=O)Nc1ccc(N(C)C)cn1 the screen gave -9.023%.

The first 2 entries again:

| compound | percent effect |
|---|---|
| `COc1cn(-c2ccccc2)nc1C(=O)NCC(C)C` | -4.127 |
| `Cn1cnc(S(=O)(=O)N(CC(N)=O)C2CCCC2)c1Cl` | -7.294 |

From ChEMBL document CHEMBL3988442, “University of Dundee, Small-Polar-MMV Screening Library” (2021).